Some entries share one result that the patent states for a list of compounds.
How the values were obtained:
Assay type in all cases: in vivo
[1] = test system: Rhipicephalus sanguineus (Brown Dog Tick); assay: Method E: screening method to test contact activity against Rhipicephalus sanguineus (treated filter paper); conditions: test concentration of 100 ppm; larvae (L1) on treated filter paper; assessed 24 hours
[2] = test system: Ctenocephalides felis (Cat Flea); assay: Method A: screening method to test systemicity against Ctenocephalides felis (artificial dog test, treated bovine blood); conditions: test concentration of 5 ppm or less in bovine blood; 10 adults; assessment at 24 and 48 hours
[3] = test system: Ctenocephalides felis (Cat Flea); assay: Method D: screening method to test contact activity against Ctenocephalides felis (treated filter paper); conditions: test concentration of 1000 ppm; adults on treated filter paper; assessed 24 hours and 48 hours
[4] = test system: Diabrotica undecimpunctata (Southern Corn Rootworm); assay: Method B: Diabrotica undecimpunctata (Southern Corn Rootworm) screen, eggs on filter paper with sprouted maize seed; conditions: test concentration of 10 ppm; assessed 6 days after application

| Compound | contact control of Rhipicephalus sanguineus [1] | control of Ctenocephalides felis [2] | contact control of Ctenocephalides felis [3] | control of Diabrotica undecimpunctata (percentage of dead eggs and/or larvae in comparison to untreated control) [4] |
| --- | --- | --- | --- | --- |
| CCOC(=O)N(CC[S+](C)[O-])c1c(S(=O)(=O)C(F)(F)F)c(C#N)nn1-c1c(Cl)cc(C(F)(F)F)cc1Cl (stereo not shown) [Compound 3-3] | at least 70% |  |  |  |
| CSCCNc1c(S(=O)(=O)C(F)(F)F)c(C#N)nn1-c1c(Cl)cc(C(F)(F)F)cc1Cl [Compound 1-2] | at least 70% | at least 90% | at least 70% |  |
| C[S+]([O-])CCCNc1c(S(=O)(=O)C(F)(F)F)c(C#N)nn1-c1c(Cl)cc(C(F)(F)F)cc1Cl (stereo not shown) [Compound 1-9] |  | at least 90% |  |  |
| CS(=O)(=O)CCCNc1c(S(=O)(=O)C(F)(F)F)c(C#N)nn1-c1c(Cl)cc(C(F)(F)F)cc1Cl [Compound 1-10] |  | at least 90% |  |  |
| CC[S+]([O-])CCNc1c(S(=O)(=O)C(F)(F)F)c(C#N)nn1-c1c(Cl)cc(C(F)(F)F)cc1Cl (stereo not shown) [Compound 1-35] |  | at least 90% |  | at least 90% |
| CCS(=O)(=O)CCCN(C)c1c(SC(F)(F)F)c(C#N)nn1-c1c(Cl)cc(C(F)(F)F)cc1Cl [Compound 2-16] |  | at least 90% |  |  |
| N#Cc1nn(-c2c(Cl)cc(C(F)(F)F)cc2Cl)c(NCCSCc2ccccc2)c1S(=O)(=O)C(F)(F)F [Compound 1-17] |  | at least 90% |  | at least 90% |
| N#Cc1nn(-c2c(Cl)cc(C(F)(F)F)cc2Cl)c(NCC[S+]([O-])Cc2ccccc2)c1S(=O)(=O)C(F)(F)F (stereo not shown) [Compound 1-39] |  | at least 90% |  | at least 90% |
| CC[S+]([O-])CCCNc1c(S(=O)(=O)C(F)(F)F)c(C#N)nn1-c1c(Cl)cc(C(F)(F)F)cc1Cl (stereo not shown) [Compound 1-15] |  | at least 90% |  |  |
| CCS(=O)(=O)CCN(C)c1c(S(=O)(=O)C(F)(F)F)c(C#N)nn1-c1c(Cl)cc(C(F)(F)F)cc1Cl [Compound 2-35] |  | at least 90% |  | at least 90% |
| CSCCCNc1c(S(=O)(=O)C(F)(F)F)c(C#N)nn1-c1c(Cl)cc(C(F)(F)F)cc1Cl [Compound 1-8] |  | at least 90% |  |  |
| N#Cc1nn(-c2c(Cl)cc(C(F)(F)F)cc2Cl)c(NC2CCSC2)c1S(=O)(=O)C(F)(F)F (stereo not shown) [Compound 1-36] |  | at least 90% |  | at least 90% |
| CSCCCCN(CC1CC1)c1c(S(=O)(=O)C(F)(F)F)c(C#N)nn1-c1c(Cl)cc(C(F)(F)F)cc1Cl [Compound 8-8] | at least 70% |  |  |  |
| CCS(=O)(=O)CCCN(C)c1c(S(=O)(=O)C(F)(F)F)c(C#N)nn1-c1c(Cl)cc(C(F)(F)F)cc1Cl [Compound 2-36] |  | at least 90% |  | at least 90% |
| CCS(=O)(=O)CCNc1c(S(=O)(=O)C(F)(F)F)c(C#N)nn1-c1c(Cl)cc(C(F)(F)F)cc1Cl [Compound 1-34] |  | at least 90% |  |  |
| CN(CCSCc1ccccc1)c1c(S(=O)(=O)C(F)(F)F)c(C#N)nn1-c1c(Cl)cc(C(F)(F)F)cc1Cl [Compound 2-17] |  | at least 90% |  |  |
| CCSCCNc1c(S(=O)(=O)C(F)(F)F)c(C#N)nn1-c1c(Cl)cc(C(F)(F)F)cc1Cl [Compound 1-19] |  | at least 90% |  | at least 90% |
| CCN(CCSC)c1c([S+]([O-])C(F)(F)F)c(C#N)nn1-c1c(Cl)cc(C(F)(F)F)cc1Cl (stereo not shown) [Compound 8-22] | at least 70% |  |  |  |
| CN(CCCS(C)(=O)=O)c1c(S(=O)(=O)C(F)(F)F)c(C#N)nn1-c1c(Cl)cc(C(F)(F)F)cc1Cl [Compound 2-10] |  | at least 90% |  |  |
| CCOC(=O)N(CCSCC)c1c(S(=O)(=O)C(F)(F)F)c(C#N)nn1-c1c(Cl)cc(C(F)(F)F)cc1Cl [Compound 3-19] |  | at least 90% |  |  |
| N#Cc1nn(-c2c(Cl)cc(C(F)(F)F)cc2Cl)c(NCCS(=O)(=O)Cc2ccccc2)c1S(=O)(=O)C(F)(F)F [Compound 1-40] |  | at least 90% |  |  |
| CSCCCN(C)c1c(S(=O)(=O)C(F)(F)F)c(C#N)nn1-c1c(Cl)cc(C(F)(F)F)cc1Cl [Compound 2-8] |  | at least 90% |  |  |
| CSCN(c1c(S(=O)(=O)C(F)(F)F)c(C#N)nn1-c1c(Cl)cc(C(F)(F)F)cc1Cl)C1CC1 [Compound 8-10] | at least 70% |  | at least 70% |  |
| CCS(=O)(=O)CCCNc1c(SC(F)(F)F)c(C#N)nn1-c1c(Cl)cc(C(F)(F)F)cc1Cl [Compound 1-16] |  | at least 90% |  |  |
| CSCCN(C)c1c(S(=O)(=O)C(F)(F)F)c(C#N)nn1-c1c(Cl)cc(C(F)(F)F)cc1Cl [Compound 2-2] |  | at least 90% |  |  |
| CN(CCC[S+](C)[O-])c1c(S(=O)(=O)C(F)(F)F)c(C#N)nn1-c1c(Cl)cc(C(F)(F)F)cc1Cl (stereo not shown) [Compound 2-9] |  | at least 90% |  | at least 90% |
| CCN(CCSC)c1c(S(=O)(=O)C(F)(F)F)c(C#N)nn1-c1c(Cl)cc(C(F)(F)F)cc1Cl [Compound 8-2] |  |  | at least 70% |  |
| CCSCCN(C)c1c(S(=O)(=O)C(F)(F)F)c(C#N)nn1-c1c(Cl)cc(C(F)(F)F)cc1Cl [Compound 2-19] |  | at least 90% |  | at least 90% |

— patent US7517877B2, “5-substituted-alkylaminopyrazole derivatives as pesticides” (Merial Limited, priority 2002, dated 2009)
